The other results are listed elsewhere or left out.

The chains behind the UniProt entries cited, without tags or fusion partners. Where a name states a change or a piece, a line headed by the entry shows the natural chain unless it says otherwise.
UniProt P08670, whole entry, looked up: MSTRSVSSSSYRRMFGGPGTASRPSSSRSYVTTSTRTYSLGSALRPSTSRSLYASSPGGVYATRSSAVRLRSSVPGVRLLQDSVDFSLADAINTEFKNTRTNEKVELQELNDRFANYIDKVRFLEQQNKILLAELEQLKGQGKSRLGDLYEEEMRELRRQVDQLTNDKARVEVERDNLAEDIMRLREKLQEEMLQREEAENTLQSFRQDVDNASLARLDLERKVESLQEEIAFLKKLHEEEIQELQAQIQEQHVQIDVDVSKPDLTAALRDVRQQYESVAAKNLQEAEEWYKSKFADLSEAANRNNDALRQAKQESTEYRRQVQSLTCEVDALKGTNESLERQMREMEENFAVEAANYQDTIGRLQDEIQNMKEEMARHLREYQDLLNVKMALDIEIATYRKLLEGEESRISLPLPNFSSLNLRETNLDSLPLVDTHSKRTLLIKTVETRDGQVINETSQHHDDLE
UniProt Q69YN4: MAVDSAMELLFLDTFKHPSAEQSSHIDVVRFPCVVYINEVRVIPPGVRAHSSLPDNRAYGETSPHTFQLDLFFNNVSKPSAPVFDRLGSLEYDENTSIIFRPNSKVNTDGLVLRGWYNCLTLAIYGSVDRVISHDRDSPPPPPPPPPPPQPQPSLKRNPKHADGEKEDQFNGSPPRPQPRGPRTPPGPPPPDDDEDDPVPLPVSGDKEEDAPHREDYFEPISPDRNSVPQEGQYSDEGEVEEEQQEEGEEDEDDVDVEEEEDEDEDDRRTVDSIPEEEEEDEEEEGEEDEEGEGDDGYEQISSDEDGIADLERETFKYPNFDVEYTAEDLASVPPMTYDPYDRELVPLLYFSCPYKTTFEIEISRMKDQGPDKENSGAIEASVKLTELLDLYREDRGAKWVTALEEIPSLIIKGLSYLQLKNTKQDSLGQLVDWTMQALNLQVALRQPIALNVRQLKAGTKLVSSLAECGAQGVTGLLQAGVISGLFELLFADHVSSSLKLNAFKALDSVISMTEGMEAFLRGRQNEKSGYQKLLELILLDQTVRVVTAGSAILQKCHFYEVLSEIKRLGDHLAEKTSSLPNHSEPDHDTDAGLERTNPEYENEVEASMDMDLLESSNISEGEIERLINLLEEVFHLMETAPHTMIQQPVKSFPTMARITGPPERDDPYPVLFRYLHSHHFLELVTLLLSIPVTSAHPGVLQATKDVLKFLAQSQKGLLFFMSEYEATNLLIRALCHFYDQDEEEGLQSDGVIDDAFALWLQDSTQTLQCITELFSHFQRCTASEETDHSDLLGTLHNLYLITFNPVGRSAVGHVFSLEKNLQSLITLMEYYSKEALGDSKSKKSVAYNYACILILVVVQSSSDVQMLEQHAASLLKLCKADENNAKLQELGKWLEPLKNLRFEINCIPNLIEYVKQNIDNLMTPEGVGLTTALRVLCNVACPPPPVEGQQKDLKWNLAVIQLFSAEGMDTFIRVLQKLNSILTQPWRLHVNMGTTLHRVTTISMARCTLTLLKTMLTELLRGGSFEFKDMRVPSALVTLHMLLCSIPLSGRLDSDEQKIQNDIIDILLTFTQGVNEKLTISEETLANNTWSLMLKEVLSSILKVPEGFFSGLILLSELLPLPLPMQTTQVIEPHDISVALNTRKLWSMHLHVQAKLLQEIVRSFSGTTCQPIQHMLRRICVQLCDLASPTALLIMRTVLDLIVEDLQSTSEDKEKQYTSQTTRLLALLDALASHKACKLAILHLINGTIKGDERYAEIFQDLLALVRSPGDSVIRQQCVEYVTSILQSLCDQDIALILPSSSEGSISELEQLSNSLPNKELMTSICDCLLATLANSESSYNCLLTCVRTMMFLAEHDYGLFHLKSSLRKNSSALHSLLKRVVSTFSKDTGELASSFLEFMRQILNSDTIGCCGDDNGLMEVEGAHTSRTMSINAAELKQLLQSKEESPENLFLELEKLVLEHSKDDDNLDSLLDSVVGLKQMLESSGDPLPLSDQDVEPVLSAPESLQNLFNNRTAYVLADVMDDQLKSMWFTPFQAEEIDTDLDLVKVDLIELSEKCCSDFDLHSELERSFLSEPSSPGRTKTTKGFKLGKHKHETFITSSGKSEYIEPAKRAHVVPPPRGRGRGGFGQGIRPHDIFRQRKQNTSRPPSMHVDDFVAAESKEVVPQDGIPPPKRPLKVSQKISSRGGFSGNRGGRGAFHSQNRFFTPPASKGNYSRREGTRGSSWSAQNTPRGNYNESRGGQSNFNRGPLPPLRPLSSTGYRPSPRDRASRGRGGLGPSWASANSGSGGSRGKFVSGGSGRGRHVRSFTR
UniProt Q8N9V3: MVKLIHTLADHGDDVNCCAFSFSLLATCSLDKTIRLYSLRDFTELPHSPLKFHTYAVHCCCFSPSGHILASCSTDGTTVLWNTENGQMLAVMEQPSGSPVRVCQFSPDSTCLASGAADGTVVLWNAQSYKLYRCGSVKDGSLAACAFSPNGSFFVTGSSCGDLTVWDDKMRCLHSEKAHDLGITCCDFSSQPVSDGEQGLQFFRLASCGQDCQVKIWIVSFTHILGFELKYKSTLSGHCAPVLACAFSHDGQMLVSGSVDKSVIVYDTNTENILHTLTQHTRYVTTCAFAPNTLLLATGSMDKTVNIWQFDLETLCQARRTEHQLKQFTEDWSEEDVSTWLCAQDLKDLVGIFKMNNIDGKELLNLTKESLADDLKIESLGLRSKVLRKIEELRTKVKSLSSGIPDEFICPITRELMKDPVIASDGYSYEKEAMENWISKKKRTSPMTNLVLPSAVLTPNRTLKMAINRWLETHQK
UniProt Q9BUR4: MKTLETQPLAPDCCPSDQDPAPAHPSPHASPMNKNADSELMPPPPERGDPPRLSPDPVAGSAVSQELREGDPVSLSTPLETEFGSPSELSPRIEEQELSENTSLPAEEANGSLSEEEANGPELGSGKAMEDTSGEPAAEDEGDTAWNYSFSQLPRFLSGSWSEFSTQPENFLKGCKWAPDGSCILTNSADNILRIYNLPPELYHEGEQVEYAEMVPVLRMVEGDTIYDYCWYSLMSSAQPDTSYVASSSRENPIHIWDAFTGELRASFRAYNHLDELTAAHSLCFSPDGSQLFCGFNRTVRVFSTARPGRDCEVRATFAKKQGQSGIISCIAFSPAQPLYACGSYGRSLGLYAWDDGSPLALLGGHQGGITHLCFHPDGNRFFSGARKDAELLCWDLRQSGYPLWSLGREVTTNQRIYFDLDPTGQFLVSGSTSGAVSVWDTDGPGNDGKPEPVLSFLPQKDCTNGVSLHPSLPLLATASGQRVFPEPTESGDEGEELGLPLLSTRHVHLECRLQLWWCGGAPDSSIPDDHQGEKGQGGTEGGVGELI
UniProt Q8IV63: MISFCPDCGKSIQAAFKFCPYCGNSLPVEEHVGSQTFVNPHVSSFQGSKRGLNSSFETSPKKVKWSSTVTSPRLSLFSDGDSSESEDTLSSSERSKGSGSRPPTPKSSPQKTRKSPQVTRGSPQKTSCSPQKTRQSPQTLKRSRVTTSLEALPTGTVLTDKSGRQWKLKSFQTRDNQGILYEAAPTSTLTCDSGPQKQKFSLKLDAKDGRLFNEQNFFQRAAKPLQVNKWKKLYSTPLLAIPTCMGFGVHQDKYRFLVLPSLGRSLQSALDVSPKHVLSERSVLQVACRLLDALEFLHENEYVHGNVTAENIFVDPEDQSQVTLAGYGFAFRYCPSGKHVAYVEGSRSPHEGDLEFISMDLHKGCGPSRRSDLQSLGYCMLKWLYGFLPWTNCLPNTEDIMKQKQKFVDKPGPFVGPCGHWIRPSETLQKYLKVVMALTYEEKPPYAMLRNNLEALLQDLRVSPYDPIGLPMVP
UniProt Q9Y2W2: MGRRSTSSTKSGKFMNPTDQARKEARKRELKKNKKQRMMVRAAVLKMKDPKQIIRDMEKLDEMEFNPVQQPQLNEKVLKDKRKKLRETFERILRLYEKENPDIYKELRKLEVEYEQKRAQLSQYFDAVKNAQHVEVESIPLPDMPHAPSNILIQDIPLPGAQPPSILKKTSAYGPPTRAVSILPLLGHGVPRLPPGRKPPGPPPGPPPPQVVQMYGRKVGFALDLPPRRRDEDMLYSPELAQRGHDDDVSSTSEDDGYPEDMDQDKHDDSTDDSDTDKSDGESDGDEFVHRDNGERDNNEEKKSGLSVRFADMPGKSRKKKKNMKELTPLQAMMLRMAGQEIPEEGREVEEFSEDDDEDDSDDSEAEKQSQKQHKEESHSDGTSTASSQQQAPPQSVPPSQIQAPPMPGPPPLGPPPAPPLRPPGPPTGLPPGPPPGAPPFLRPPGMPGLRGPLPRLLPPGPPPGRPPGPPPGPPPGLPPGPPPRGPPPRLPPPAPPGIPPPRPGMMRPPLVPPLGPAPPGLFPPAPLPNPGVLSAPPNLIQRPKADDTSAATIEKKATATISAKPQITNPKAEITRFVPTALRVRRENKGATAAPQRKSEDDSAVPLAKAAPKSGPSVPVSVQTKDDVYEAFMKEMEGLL
UniProt Q9P2S5: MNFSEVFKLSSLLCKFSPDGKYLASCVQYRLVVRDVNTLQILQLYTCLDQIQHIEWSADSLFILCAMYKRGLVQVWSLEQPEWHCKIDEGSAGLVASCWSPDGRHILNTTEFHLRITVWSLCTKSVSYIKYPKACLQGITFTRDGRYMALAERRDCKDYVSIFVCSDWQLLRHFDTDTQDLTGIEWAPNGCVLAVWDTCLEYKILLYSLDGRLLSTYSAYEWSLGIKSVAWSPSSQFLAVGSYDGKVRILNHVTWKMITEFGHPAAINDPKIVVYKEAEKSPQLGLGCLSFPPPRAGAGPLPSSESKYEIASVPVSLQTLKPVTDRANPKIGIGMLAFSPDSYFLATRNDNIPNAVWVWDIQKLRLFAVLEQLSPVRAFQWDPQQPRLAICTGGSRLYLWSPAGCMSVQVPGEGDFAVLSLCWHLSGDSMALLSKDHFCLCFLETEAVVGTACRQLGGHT
UniProt Q96GC9: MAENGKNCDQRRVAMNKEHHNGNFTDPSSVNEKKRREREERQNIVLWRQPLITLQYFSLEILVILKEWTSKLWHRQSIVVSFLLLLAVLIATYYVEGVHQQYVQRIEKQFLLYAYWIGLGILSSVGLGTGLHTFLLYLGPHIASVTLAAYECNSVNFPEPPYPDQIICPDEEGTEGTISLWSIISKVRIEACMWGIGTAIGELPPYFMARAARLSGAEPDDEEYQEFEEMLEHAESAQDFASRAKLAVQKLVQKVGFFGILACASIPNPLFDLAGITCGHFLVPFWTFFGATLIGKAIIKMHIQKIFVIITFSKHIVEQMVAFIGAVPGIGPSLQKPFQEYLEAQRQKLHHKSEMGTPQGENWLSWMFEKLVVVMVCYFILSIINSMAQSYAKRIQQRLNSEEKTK
UniProt Q96S15: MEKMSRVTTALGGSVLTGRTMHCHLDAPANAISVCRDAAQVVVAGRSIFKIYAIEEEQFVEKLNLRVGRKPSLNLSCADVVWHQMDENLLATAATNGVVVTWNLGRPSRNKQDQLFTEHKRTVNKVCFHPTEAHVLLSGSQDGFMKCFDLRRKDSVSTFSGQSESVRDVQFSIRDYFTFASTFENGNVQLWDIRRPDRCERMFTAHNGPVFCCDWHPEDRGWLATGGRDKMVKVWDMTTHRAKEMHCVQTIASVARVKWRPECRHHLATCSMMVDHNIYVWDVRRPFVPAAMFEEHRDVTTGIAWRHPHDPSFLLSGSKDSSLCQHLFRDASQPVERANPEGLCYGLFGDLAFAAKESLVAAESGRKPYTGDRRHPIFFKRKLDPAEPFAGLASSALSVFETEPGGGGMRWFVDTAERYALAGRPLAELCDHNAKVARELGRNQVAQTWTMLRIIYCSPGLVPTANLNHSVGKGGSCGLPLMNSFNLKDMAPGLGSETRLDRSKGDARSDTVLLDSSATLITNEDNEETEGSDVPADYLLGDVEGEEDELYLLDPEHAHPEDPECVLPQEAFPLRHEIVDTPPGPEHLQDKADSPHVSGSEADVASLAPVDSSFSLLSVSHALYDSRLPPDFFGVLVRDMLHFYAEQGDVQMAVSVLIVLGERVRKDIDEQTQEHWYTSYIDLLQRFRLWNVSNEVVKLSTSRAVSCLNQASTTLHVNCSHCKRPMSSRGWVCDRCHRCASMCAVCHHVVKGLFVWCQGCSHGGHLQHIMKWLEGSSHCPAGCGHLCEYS
UniProt P45880: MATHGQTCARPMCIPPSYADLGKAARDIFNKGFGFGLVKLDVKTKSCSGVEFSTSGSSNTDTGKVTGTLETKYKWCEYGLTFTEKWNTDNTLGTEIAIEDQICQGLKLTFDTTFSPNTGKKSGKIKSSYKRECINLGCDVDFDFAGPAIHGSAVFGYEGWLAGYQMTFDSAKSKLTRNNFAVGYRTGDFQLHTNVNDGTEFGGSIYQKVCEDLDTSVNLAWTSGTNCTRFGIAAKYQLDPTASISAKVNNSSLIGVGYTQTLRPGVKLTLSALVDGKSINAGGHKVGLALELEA

Compound in this experiment: c1cn2cc(-c3ccc4cn[nH]c4c3)nc(Nc3ccc(N4CCOCC4)cc3)c2n1 [entospletinib]
Put plainly: log2 fold change, soluble protein after heating vs DMSO (PISA); higher = thermal stabilisation; K562 cells, 10 uM, 30 min; active = over 0.2 and 3.5 SD of the protein, either way, in both replicates (recomputed). Put shortly:
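For each measurement, 10 μM compound was applied for 30 min to K562 cells at 2×10^6 cells/mL. Aliquots were heated for 3 min across 48°C-58°C, pooled, and extracted in PBS with 0.5% NP-40 at 4°C; the supernatant after 21,000xg for 90 min was soluble protein. This was quantified by TMTpro 16plex LC-MS/MS with channel sums equalised, and thermal stability was reported relative to control samples from duplicates, on a log2 fold-change scale.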
As to VIM (UniProt P08670), the log2 fold change is inactive: 0.158. With WDR44 (UniProt Q5JSH3) the figure was inactive: -0.024; with VIRMA (UniProt Q69YN4), inactive: 0.102; with WDSUB1 (UniProt Q8N9V3), inactive: -0.011.

With WRAP53 (UniProt Q9BUR4), the log2 fold change is inactive: -0.062. In the case of VRK3 (UniProt Q8IV63) it was inactive: -0.041. With WDR19 (UniProt Q8NEZ3) the figure was inactive: -0.089; with WDR91 (UniProt A4D1P6), inactive: 0.053. With VSIR (UniProt Q9H7M9) the figure was inactive: -0.023; with WIPI2 isoform 6 (UniProt Q9Y4P8), inactive: -0.07; with VTN (UniProt P04004), inactive: 0.174. For WBP11 (UniProt Q9Y2W2), the log2 fold change is inactive: -0.017. For WRAP73 (UniProt Q9P2S5), the log2 fold change is inactive: 0.004.

For the target VMP1 (UniProt Q96GC9), the log2 fold change was inactive: 0.027. In the case of VPS35, A0A1W2PP10 it was inactive: -0.08; in that of WDR24 (UniProt Q96S15), inactive: 0.055; in that of VPS35 (UniProt Q96QK1), inactive: -0.03. Consider VPS37B (UniProt Q9H9H4), for which the log2 fold change is inactive: 0.032. On to WASHC4 (UniProt Q2M389), for which the log2 fold change was inactive: 0.088. In the case of WDR73 (UniProt Q6P4I2) it was inactive: -0.025. For WDR55 (UniProt Q9H6Y2), the log2 fold change is inactive: -0.012. VDAC2 (UniProt P45880): the log2 fold change was inactive: -0.003.

Consider VPS26C (UniProt O14972), for which the log2 fold change was inactive: -0.002. For WIPF2 (UniProt Q8TF74), the log2 fold change was inactive: 0.007.

The record behind these values is the supplement of paper PMC10849652.
